{"source": "patent US20220152203A1", "about": "“BROAD-BASED THERAPEUTIC FOR IN[…]-19 AND OTHER VIRAL PATHOGENS USING CHEMILUMINESCENCE-ACTIVATED COMPOUNDS ENCAPSULATED IN NANOPARTICLES” (priority 2020, published 2022)", "origin": "cited, not measured here", "key": {"HIV [1]": {"system": "HIV", "settings": "cited from earlier work"}, "hepatitis C": {"system": "hepatitis C", "settings": "hypericin administration to patients, no light source; cited from earlier work"}, "HIV [2]": {"system": "HIV", "settings": "hypericin in the presence of “molecular flashlight”; cell culture media in vitro; cited from earlier work"}, "HIV [3]": {"system": "HIV", "settings": "hypericin administration to patients, no light source; cited from earlier work"}}, "note": "At least one structure is not confirmed: it was looked up by name or label, or the drawing left a doubt."}
{"smiles": "Cc1cc(O)c2c(=O)c3c(O)cc(O)c4c5c(O)cc(O)c6c(=O)c7c(O)cc(C)c8c1c2c(c34)c(c78)c65", "note": "[hypericin, Hypericin]", "values": [{"measurement": "HIV rendered non-infective", "setting": "HIV [1]; hypericin with fluorescent light", "value": "over 10^6 TCID50"}, {"measurement": "virucidal effects in complete darkness", "setting": "HIV [1]; virus treated with hypericin in complete darkness", "value": "minimal"}, {"measurement": "benefit in hepatitis C-infected individuals (pilot studies)", "setting": "hepatitis C", "value": "negative result"}, {"measurement": "HIV inactivated in the dark", "setting": "HIV [2]", "value": "10^6 TCID50"}, {"measurement": "benefit in HIV-infected individuals (pilot studies)", "setting": "HIV [3]", "value": "negative result"}]}
